Experimental data taken from paper PMC7647119.
These are yes or no findings as the source states them, for the method shown. Some results given as binding are weak or reduced against the parent protein; the word gives no strength. Sequences can lack the tags named with a protein.

Molecular target: Aspartic Protease 1 (OsAsp1), yeast two-hybrid fusion (rice (Oryza sativa)) (UniProt Q0IU52)
Experiment: two-hybrid; pGAD7 prey and pGBK7 bait constructs co-transformed into yeast AH109; growth on SD-Leu-Trp-His, SD-Leu-Trp as control; also with IAA, which inhibited the OsAsp1-OsTIF1 interaction

binding: binds
B1: Aspartic Protease 1 (OsAsp1), yeast two-hybrid fusion (protein, UniProt Q0IU52 1-410)
chain: MTARLALLASLLLLLQLVPPSSAVVLELHGNVYPIGHFFITMNIGDPAKSYFLDIDTGSTLTWLQCDAPCTNCNIVPHVLYKPTPKKLVTCADSLCTDLYTDLGKPKRCGSQKQCDYVIQYVDSSSMGVLVIDRFSLSASNGTNPTTIAFGCGYDQGKKNRNVPIPVDSILGLSRGKVTLLSQLKSQGVITKHVLGHCISSKGGGFLFFGDAQVPTSGVTWTPMNREHKYYSPGHGTLHFDSNSKAISAAPMAVIFDSGATYTYFAAQPYQATLSVVKSTLNSECKFLTEVTEKDRALTVCWKGKDKIVTIDEVKKCFRSLSLEFADGDKKATLEIPPEHYLIISQEGHVCLGILDGSKEHLSLAGTNLIGGITMLDQMVIYDSERSLLGWVNYQCDRIPRSESAITSRL
